From PubChem BioAssay AID260 (DTP/NCI, 2004)
The list is a part of this screen's results and no random one: it is rich in T/C values a quarter to a half above the control, in often repeated tests (any T/C) and in doses without a T/C. Further doses and runs are listed elsewhere. T/C: endpoint of the treated group in % of that of the vehicle group. Some entries give survivors of the animals treated and no T/C: the source files T/C as zero there, which appears to mark a toxic dose or a test without result, not a measured value. Some survivor counts are full or nearly so, which does not show that the dose was tolerated: the source hardly ever lists a survival T/C far under the control, and the zero likely stands for such cases as well. Counts of survivors are from the toxicity check (mostly the fifth day) where no day follows; animals may have died later. Schedules are NCI's codes, taken here to give the interval after Q, in days (D) or hours (H), and the number of doses after X. Some entries hold several experiments; the results are listed from low to high. Where survival is the endpoint, the PubChem record calls one and a half times the control and up active, and a quarter to a half above the control has no call in these data; cut-offs in other NCI protocols can differ. Some T/C values carry the count of animals alive at the toxicity check (mostly the fifth day); where none is given, no animal had died by that day.

Tested on: CD2F1 mice, intracerebral L1210 leukemia, survival T/C
Assay: NCI In Vivo Anticancer Drug Screen. Data for tumor model L1210 Leukemia (intracerebral) in CD2F1 (CDF1) mice
Settings: higher T/C = longer survival
Protocol: The antitumor activity of compounds was measured in mice bearing transplantable tumors. Survival or tumor size were measured and the results are expressed as the measurement made in the treated group (T) divided by the measurement made in the vehicle treated control group (C). The tumor model used in this assay is L1210 Leukemia (intracerebral) in CD2F1 (CDF1) mice

[1] = T/C endpoint: median survival time, dose: 3.0 mg/kg/injection, schedule: Q01DX009 (ip), vehicle: saline
[2] = T/C endpoint: mean survival time, dose: 2.0 mg/kg/injection, schedule: Q01DX009 (ip), vehicle: saline
[3] = T/C endpoint: median survival time, dose: 256.0 mg/kg/injection, schedule: Q01DX005 (ip), vehicle: saline with Tween-80
[4] = T/C endpoint: median survival time, dose: 512.0 mg/kg/injection, schedule: Q01DX005 (ip), vehicle: saline with Tween-80

O=c1n(CC2CO2)c(=O)n(CC2CO2)c(=O)n1CC1CO1 (stereo not drawn)
T/C (T/C endpoint: median survival time, dose: 25.6 mg/kg/injection, schedule: Q01DX009 (ip), vehicle: saline): 128 % of control | T/C (T/C endpoint: median survival time, dose: 30.0 mg/kg/injection, schedule: Q01DX009 (ip), vehicle: saline): 135 % of control | T/C (T/C endpoint: median survival time, dose: 32.0 mg/kg/injection, schedule: Q01DX009 (ip), vehicle: saline): 145 % of control | T/C (T/C endpoint: median survival time, dose: 40.0 mg/kg/injection, schedule: Q01DX009 (ip), vehicle: saline): 132 % of control | T/C (T/C endpoint: median survival time, dose: 96.0 mg/kg/injection, schedule: Q01DX001 (ip), vehicle: saline): 126 % of control | survivor count (T/C endpoint: median survival time, dose: 120.0 mg/kg/injection, schedule: Q01DX001 (ip), vehicle: saline): 6 of 8 | T/C (T/C endpoint: median survival time, dose: 120.0 mg/kg/injection, schedule: Q01DX009 (ip), vehicle: saline): 141 % of control | survivor count (T/C endpoint: median survival time, dose: 150.0 mg/kg/injection, schedule: Q01DX001 (ip), vehicle: saline): 1 of 8 | T/C (T/C endpoint: median survival time, dose: 150.0 mg/kg/injection, schedule: Q01DX009 (ip), vehicle: saline): 139 % of control [9 of 10 alive]

COC(=O)NC1=C(N2CC2)C(=O)C(NC(=O)OC)=C(N2CC2)C1=O
T/C (T/C endpoint: median survival time, dose: 1.5 mg/kg/injection, schedule: Q01DX009 (ip), vehicle: saline): 134 and 138 % of control [9 of 10 alive] | T/C [1]: 130 % of control | survivor count [1]: 9 of 10 | survivor count (T/C endpoint: median survival time, dose: 6.0 mg/kg/injection, schedule: Q01DX009 (ip), vehicle: saline): 2 of 10 and 8 of 10

S=P(N1CC1)(N1CC1)N1CC1
T/C [2]: 138 % of control | T/C (T/C endpoint: mean survival time, dose: 8.0 mg/kg/injection, schedule: Q01DX009 (ip), vehicle: saline): 134 and 148 % of control

Nc1nncs1
T/C (T/C endpoint: median survival time, dose: 15.0 mg/kg/injection, schedule: Q01DX009 (ip), vehicle: Klucel (hydroxypropylcellulose) (HPC)): 131 % of control | T/C (T/C endpoint: median survival time, dose: 30.0 mg/kg/injection, schedule: Q01DX009 (ip), vehicle: Klucel (hydroxypropylcellulose) (HPC)): 140 % of control | survivor count (T/C endpoint: median survival time, dose: 120.0 mg/kg/injection, schedule: Q01DX009 (ip), vehicle: Klucel (hydroxypropylcellulose) (HPC)): 10 of 10 | T/C (T/C endpoint: median survival time, dose: 128.0 mg/kg/injection, schedule: Q01DX005 (ip), vehicle: saline with Tween-80): 133 and 136 % of control | survivor count (T/C endpoint: median survival time, dose: 240.0 mg/kg/injection, schedule: Q01DX009 (ip), vehicle: Klucel (hydroxypropylcellulose) (HPC)): 10 of 10 | T/C [3]: 138 % of control | survivor count [3]: 7 of 10 and 10 of 10 | T/C [4]: 135 % of control | survivor count [4]: 7 of 10 and 8 of 10

C[C@H](CN1CC(=O)NC(=O)C1)N1CC(=O)NC(=O)C1
T/C (T/C endpoint: mean survival time, dose: 16.0 mg/kg/injection, schedule: Q01DX009 (ip), vehicle: water): 130 % of control | T/C (T/C endpoint: mean survival time, dose: 32.0 mg/kg/injection, schedule: Q01DX009 (ip), vehicle: water): 147 % of control

C#CCN(C)/N=N/c1nc[nH]c1C(N)=O
T/C (T/C endpoint: median survival time, dose: 32.0 mg/kg/injection, schedule: Q01DX005 (ip), vehicle: saline with Tween-80): 125 % of control | survivor count [3]: 0 of 6

CN(N=O)C(=O)Nc1c[nH]c(=O)[nH]c1=O
survivor count [3]: 0 of 6

O=NN(CCCl)C(=O)NCCCl
T/C (T/C endpoint: mean survival time, dose: 10.0 mg/kg/injection, schedule: Q01DX001 (ip), vehicle: saline): 143 % of control | T/C (T/C endpoint: median survival time, dose: 5.0 mg/kg/injection, schedule: Q01DX001 (ip), vehicle: distilled water + alcohol): 126 % of control | T/C (T/C endpoint: median survival time, dose: 6.2 mg/kg/injection, schedule: Q01DX001 (ip), vehicle: DMSO): 142 % of control | T/C (T/C endpoint: median survival time, dose: 7.5 mg/kg/injection, schedule: Q01DX001 (ip), vehicle: saline + alcohol): 125 % of control | T/C (T/C endpoint: median survival time, dose: 10.0 mg/kg/injection, schedule: Q01DX001 (ip), vehicle: distilled water + alcohol): 146 % of control | T/C (T/C endpoint: median survival time, dose: 15.0 mg/kg/injection, schedule: Q01DX001 (ip), vehicle: saline + alcohol): 125 % of control | T/C (T/C endpoint: median survival time, dose: 32.0 mg/kg/injection, schedule: Q01DX001 (ip), vehicle: saline + alcohol, evaluated on day 5): 101 % of control | T/C (T/C endpoint: median survival time, dose: 32.0 mg/kg/injection, schedule: Q01DX001 (ip), vehicle: saline + alcohol, evaluated on day 30): 177, 333, 352 % of control | T/C (T/C endpoint: median survival time, dose: 50.0 mg/kg/injection, schedule: Q01DX001 (ip), vehicle: DMSO): 126 % of control [3 of 4 alive] | survivor count (T/C endpoint: median survival time, dose: 80.0 mg/kg/injection, schedule: Q01DX001 (ip), vehicle: distilled water + alcohol): 10 of 10 | survivor count (T/C endpoint: median survival time, dose: 160.0 mg/kg/injection, schedule: Q01DX001 (ip), vehicle: distilled water + alcohol): 10 of 10 | survivor count (T/C endpoint: median survival time, dose: 320.0 mg/kg/injection, schedule: Q01DX001 (ip), vehicle: distilled water + alcohol): 8 of 10

CS(=O)(=O)CS(=O)(=O)OCCCl
T/C (T/C endpoint: median survival time, dose: 25.0 mg/kg/injection, schedule: Q01DX009 (ip), vehicle: saline): 137 % of control

COS(C)(=O)=O
T/C (T/C endpoint: median survival time, dose: 32.0 mg/kg/injection, schedule: Q01DX005 (ip), vehicle: saline): 127 % of control | T/C (T/C endpoint: median survival time, dose: 64.0 mg/kg/injection, schedule: Q01DX005 (ip), vehicle: saline): 138 % of control

CN(CCO)C1=C(N2CC2)C(=O)C(N(C)CCO)=C(N2CC2)C1=O
T/C (T/C endpoint: mean survival time, dose: 1.0 mg/kg/injection, schedule: Q01DX009 (ip), vehicle: saline): 130 % of control | T/C [2]: 132 and 136 % of control | T/C (T/C endpoint: mean survival time, dose: 4.0 mg/kg/injection, schedule: Q01DX009 (ip), vehicle: saline): 145 % of control

COc1cc2c(c3c1c(=O)c1ccccc1n3C)C=CC(C)(C)O2
survivor count (T/C endpoint: median survival time, dose: 256.0 mg/kg/injection, schedule: Q01DX005 (ip), vehicle: Klucel (hydroxypropylcellulose) (HPC)): 1 of 10 and 2 of 10 | survivor count (T/C endpoint: median survival time, dose: 512.0 mg/kg/injection, schedule: Q01DX005 (ip), vehicle: Klucel (hydroxypropylcellulose) (HPC)): 0 of 10 and 1 of 10 | survivor count (T/C endpoint: median survival time, dose: 1024.0 mg/kg/injection, schedule: Q01DX005 (ip), vehicle: Klucel (hydroxypropylcellulose) (HPC)): 0 of 10

CN(C)CCCN1c2ccccc2Sc2ccc(Cl)cc21
T/C (T/C endpoint: median survival time, dose: 75.0 mg/kg/injection, schedule: Q01DX001 (ip), vehicle: water): 130 % of control [2 of 6 alive]

CC(CN1CC(=O)NC(=O)C1)N1CC(=O)NC(=O)C1 (stereo not drawn)
T/C (T/C endpoint: mean survival time, dose: 16.0 mg/kg/injection, schedule: Q01DX009 (ip), vehicle: Klucel (hydroxypropylcellulose) (HPC)): 140 % of control | T/C (T/C endpoint: mean survival time, dose: 100.0 mg/kg/injection, schedule: Q04DX003 (ip), vehicle: steroid suspending solution): 131 % of control | T/C (T/C endpoint: mean survival time, dose: 128.0 mg/kg/injection, schedule: Q01DX009 (ip), vehicle: Klucel (hydroxypropylcellulose) (HPC)): 142 % of control | T/C (T/C endpoint: mean survival time, dose: 400.0 mg/kg/injection, schedule: Q04DX003 (ip), vehicle: steroid suspending solution): 141 % of control [7 of 8 alive] | T/C (T/C endpoint: mean survival time, dose: 800.0 mg/kg/injection, schedule: Q04DX003 (ip), vehicle: steroid suspending solution): 147 % of control

NC(=S)N/N=C/c1ccc(O)cn1
T/C (T/C endpoint: median survival time, dose: 96.0 mg/kg/injection, schedule: Q01DX005 (ip), vehicle: saline): 128 % of control

CCCN(C)C(=O)N(CCCl)N=O
T/C (T/C endpoint: median survival time, dose: 15.6 mg/kg/injection, schedule: Q01DX001 (ip), vehicle: saline + alcohol): 128 % of control | T/C (T/C endpoint: median survival time, dose: 31.3 mg/kg/injection, schedule: Q01DX001 (ip), vehicle: DMSO): 126 % of control | T/C (T/C endpoint: median survival time, dose: 62.5 mg/kg/injection, schedule: Q01DX001 (ip), vehicle: DMSO): 138 % of control | T/C (T/C endpoint: median survival time, dose: 125.0 mg/kg/injection, schedule: Q01DX001 (ip), vehicle: DMSO): 145 % of control

C[C@@H]1C[C@@H]([C@H](O)CC2CC(=O)NC(=O)C2)C(=O)[C@@H](C)C1
survivor count (T/C endpoint: mean survival time, dose: 160.0 mg/kg/injection, schedule: Q01DX009 (ip), vehicle: saline): 2 of 6

CC1(C)N=C(N)N=C(N)N1c1ccc(OCc2ccc(C(=O)Nc3cccc(S(=O)(=O)F)c3)cc2)c(Cl)c1
survivor count (T/C endpoint: mean survival time, dose: 200.0 mg/kg/injection, schedule: Q04DX003 (ip), vehicle: saline): 2 of 6 | survivor count (T/C endpoint: mean survival time, dose: 400.0 mg/kg/injection, schedule: Q04DX003 (ip), vehicle: saline): 1 of 6

O=NN(CCCl)C(=O)NC1CCCCC1
T/C (T/C endpoint: median survival time, dose: 8.0 mg/kg/injection, schedule: Q01DX001 (ip), vehicle: other): 138 % of control | T/C (T/C endpoint: median survival time, dose: 32.0 mg/kg/injection, schedule: Q01DX001 (ip), vehicle: saline + alcohol): 141 % of control | survivor count (T/C endpoint: median survival time, dose: 64.0 mg/kg/injection, schedule: Q01DX001 (ip), vehicle: other): 6 of 6 | survivor count (T/C endpoint: median survival time, dose: 128.0 mg/kg/injection, schedule: Q01DX001 (ip), vehicle: other): 3 of 6
